Among the data in PubChem BioAssay AID2685 (National Center for Advancing Translational Sciences (NCATS), 2010) are cell number change and AC50 values, retold here.

By AC50 is commonly meant the concentration giving half of the maximal activity seen.

The test is described as follows: qHTS Assay for Lipid Storage Modulators in Drosophila S3 Cells.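 On cell number change: cells counted by Cell Tracker Red CMTPX staining in the red channel.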 Conditions: BODIPY lipid droplet fluorescence, 18-24 h; for cell number change: measured here: cell count max response, cells fed with added oleic acid. A digest of the protocol:
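Drosophila S3 cells loaded with oleic acid (400 uM, as added) and compounds at several concentrations; lipid droplets imaged by 488-nm laser-scanning cytometry, 500–530 nm intensity and object ratio to cell channel. Percent activity normalized to 20 uM Triacsin C.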
On the technique in general: qHTS replaces the single test concentration by a dilution series.

Where [1] appears, read: measured here: cell number channel AC50, cells fed with added oleic acid.
[2] abbreviates: measured here: lipid fluorescence (Fed channel) AC50, cells fed with added oleic acid.

Some of the results follow. The main result of the screen is listed elsewhere. These columns were measured beside it and carry no call. Compounds called inactive in the main read-out are mostly missing here. Potencies come from curve fits of mixed quality, noted in brackets.

With `Cc1n[nH]c(=O)c2c(NC(=O)COC(=O)c3ncc(Cl)c(Cl)c3Cl)oc(C)c12`, the cell number change is -30.7%. In addition, the half-maximal activity concentration (AC50) under setting [1] is 4.61 µM [falling, full curve, poor fit]. Moreover, the AC50 under setting [2] was 25.9 µM [falling, single point].

As to `COc1ccccc1OCC(=O)NCCSCc1cccc(Cl)c1`, the cell number change worked out at 128%. In addition, the AC50 under setting [1] was 16.4 µM [rising, partial curve]. Under setting [2], the half-maximal activity concentration (AC50) was 23.1 µM [rising, single point].

Regarding `Cc1ccc(-n2nc3c(=O)n(CCCC(=O)NCc4ccccc4Cl)nc(C)c3c2C)cc1`, the cell number change amounted to 30.9%. Further, the AC50 under setting [1] was 1.46 µM [rising, full curve, poor fit]. In addition, under setting [2], the AC50 was 5.17 µM [rising, partial curve].

As for `CCOP(=O)(/C(C#N)=C(\C)O)c1ccccc1` (centres undefined), the cell number change is -26.5%. The AC50 under setting [1] was 0.00411 µM [falling, full curve, poor fit].

Take `O=S(=O)(c1ccccc1)c1nc(-c2ccccc2)oc1NCc1cccnc1`: the cell number change is -29%. For the same compound, the concentration at half-maximal activity (AC50) under setting [2] was 1.46 µM [rising, partial curve, poor fit].

`CCN1C(=O)C2(C(C#N)=C(N)Oc3n[nH]c(-c4ccccc4)c32)c2ccccc21` (centres undefined): the cell number change was -8.52%.

Regarding `O=C(NC(=S)Nc1ccc2c(c1)OCO2)c1ccc(Cl)cc1`, the AC50 under setting [1] is 0.58 µM [rising, single point] and the half-maximal activity concentration (AC50) under setting [2] is 0.116 µM [rising, full curve, poor fit].

Consider `COc1cccc(C2=NN(C(=O)c3ccco3)C(c3ccco3)C2)c1` (centres undefined), for which the cell number change was determined as 17.1%. Further, the half-maximal activity concentration (AC50) under setting [2] is 0.00461 µM [rising, full curve, poor fit].

For `O=C(NCCCN1CCCC1=O)C(=O)Nc1cccc(F)c1`, the cell number change turned out to be 17.5%.

On to `COc1cc(C(=O)NCC(C)(C)CNC(=O)c2cc(OC)c(OC)c(OC)c2)cc(OC)c1OC`, for which the cell number change was -7.41%.

Take `CCOc1ncccc1C(=O)OCCN1C(=O)c2ccccc2C1=O`: the cell number change was -7.99%. Also, the AC50 under setting [2] was 0.13 µM [falling, full curve, poor fit].

With `CCc1ccc2nc(N(CCN(C)C)C(=O)c3ccc4ccccc4c3)sc2c1`, the AC50 under setting [2] is 13 µM [rising, partial curve, poor fit].

Regarding `COc1cc2ccccc2cc1C(=O)OCc1nc2ccsc2c(=O)[nH]1`, the cell number change is -65.5%. Further, under setting [1], the concentration at half-maximal activity (AC50) is 14.6 µM [falling, partial curve]. Also, under setting [2], the concentration at half-maximal activity (AC50) was 0.461 µM [falling, full curve].

Take `CCN(CC)S(=O)(=O)c1ccc2c(c1)nc(CCC(=O)O)n2C`: the cell number change amounted to 15.7%.

As to `CCN(CC)CC(=O)NN=C(c1ccccc1)c1ccccc1`, the cell number change stood at 12.5%.

In the case of `C[C@@]12C(=O)N(c3cccc(F)c3)C(=O)N1[C@H](c1ccc(Cl)cc1)[C@@H]1C(=O)N(C3CCCCC3)C(=O)[C@@H]12`, the cell number change was 6.53%. In addition, under setting [2], the AC50 was 0.651 µM [falling, partial curve, poor fit].

In the case of `O=C1NCC(COCc2ccccc2)O1` (centres undefined), the cell number change is -14.9%. Under setting [1], the AC50 is 0.731 µM [falling, full curve].

In the case of `CCNc1nc(Cl)nc(NCc2ccccc2)n1`, the cell number change was -1.28%.

`CC(=O)Nc1ccc(NC(=O)C(C)OC(=O)c2ccc3[nH]c(C)c(C)c3c2)cc1` (centres undefined): the cell number change was 131%. The concentration at half-maximal activity (AC50) under setting [1] was 11.6 µM [rising, partial curve].

Turning to `CCOC(=O)[C@@H]1[C@H]2COc3ccccc3[C@@H]2N2C(=O)N(c3ccc(C)cc3)C(=O)[C@]12C`, the cell number change was determined as 2.4%. Moreover, the AC50 under setting [2] is 23.1 µM [rising, single point].

Regarding `O=C1c2ccccc2-n2c1nc1ccccc1c2=O`, the cell number change is -11.5%. In addition, the concentration at half-maximal activity (AC50) under setting [2] was 0.517 µM [falling, full curve].

Turning to `O=C1CN(C(=O)Cn2ncc(Cl)c(Cl)c2=O)c2ccccc2N1`, the cell number change is -3.53%.

Regarding `Cc1nn(C)c(C)c1CNC(=O)/C=C/c1ccccc1F`, the cell number change came out at 27%. Under setting [2], the AC50 was 8.2 µM [rising, partial curve].

Consider `COc1ccc(NS(=O)(=O)c2cccc(C(=O)N(C)CC(=O)Nc3ccc(C)cc3)c2)cc1`, for which the cell number change was -95.8%. Moreover, the concentration at half-maximal activity (AC50) under setting [1] was 11.6 µM [falling, partial curve].

As to `O=c1cc(-c2ccccc2)oc2cc(OCc3ccccc3)cc(O)c12`, the cell number change turned out to be 15.9%.

As to `CCOc1cc(C(=O)Nc2cc(=O)n(C)c(=O)n2C)cc(OCC)c1OCC`, the cell number change was 17.4%.

As for `COc1ccc(N2CCN(C(=O)c3ccc(CS(=O)(=O)c4ccc(Br)cc4)o3)CC2)cc1`, the cell number change is 62.4%. Besides, the concentration at half-maximal activity (AC50) under setting [1] was 23.1 µM [rising, single point].

Regarding `O=C(NCc1cccc(C(F)(F)F)c1)C1CC(c2c(Cl)cccc2Cl)=NO1` (centres undefined), the cell number change is -8.75%. The AC50 under setting [1] is 5.8 µM [falling, partial curve]. Also, under setting [2], the concentration at half-maximal activity (AC50) is 6.51 µM [falling, partial curve].

For the compound `CCCn1c(N2CCN(CC(=O)Nc3ccc4c(c3)OCCO4)CC2)nc2ccccc21`, the cell number change was 43.8%. Under setting [1], the AC50 is 29.1 µM [rising, single point].

Take `CCOC(=O)C1(Cc2ccc(OC)cc2)CCN(C(=O)C2CC(=O)N(C3CC3)C2)CC1` (centres undefined): the cell number change was -22.2%. Under setting [1], the AC50 was 1.03 µM [falling, full curve, poor fit].

Turning to `O=C(COC(=O)c1ccccc1Cl)Nc1ccc2[nH]c(=O)[nH]c2c1`, the cell number change amounted to 1.5%.

As for `COc1ccc(-c2nnn(CC(=O)c3ccccc3)n2)cc1OC`, the cell number change worked out at 14.7%.

For `CC(NC(=O)OCc1ccccc1)C(=O)NCC1CCCO1` (centres undefined), the cell number change came to 91.8%. For the same compound, under setting [1], the concentration at half-maximal activity (AC50) was 23.1 µM [rising, partial curve]. For the same compound, under setting [2], the AC50 is 1.64 µM [rising, single point].

Regarding `CCOc1ccccc1OCC(=O)N/N=C(\C)Cc1ccc(OC)cc1`, under setting [2], the concentration at half-maximal activity (AC50) is 29.1 µM [rising, single point].

As for `O=C(O)CCC(=O)Nc1sc2c(c1C(=O)Nc1cccc3ccccc13)CCCCC2`, the cell number change is -28.3%. Moreover, under setting [2], the half-maximal activity concentration (AC50) was 6.51 µM [falling, single point].

As to `CC1(c2ccccc2)CC(C)(C)N2C(=O)Cc3cccc1c32` (centres undefined), the cell number change was -28%. Besides, under setting [2], the AC50 is 29.1 µM [falling, single point].

On to `Cc1c(NC(=S)SCc2ccccc2)c(=O)n(-c2ccccc2)n1C`, for which the cell number change was -2.44%. Besides, the concentration at half-maximal activity (AC50) under setting [2] is 0.103 µM [rising, full curve, poor fit].

In the case of `COc1ccc(NC(=O)C2CC(=O)N(C(C)C)C2)cc1` (centres undefined), the cell number change was found to be 1.07%. In addition, the AC50 under setting [2] is 0.13 µM [falling, full curve, poor fit].

`CC(=O)C1=C(C)NC(SCC(=O)c2cc(Cl)ccc2Cl)=C(C#N)C1c1ccco1` (centres undefined): the cell number change is -35.8%. The AC50 under setting [1] was 11.6 µM [falling, partial curve]. Under setting [2], the AC50 is 29.1 µM [falling, single point].

Turning to `CCCCSc1nn[nH]n1`, the cell number change was 4.1%. Under setting [2], the AC50 was 1.84 µM [falling, partial curve].

In the case of `O=C(N/N=C/c1cccnc1)c1ccccc1NS(=O)(=O)c1cccs1`, the cell number change is -16.8%.

Regarding `COc1ccccc1-n1c(C)nnc1SCC(N)=O`, the cell number change was -200%. For the same compound, the AC50 under setting [1] was 29.1 µM [falling, single point].

`CC(=O)c1sc(NC(=O)CCNC(=O)c2ccco2)nc1-c1ccccc1`: the cell number change is 3.97%. Further, the AC50 under setting [1] was 6.51 µM [rising, single point]. Further, under setting [2], the AC50 is 29.1 µM [falling, single point].

Turning to `COCCCNC(=O)CSc1c2c(nc3ccc(Cl)cc13)CCCC2`, the cell number change turned out to be 3.21%. For the same compound, the AC50 under setting [2] was 0.58 µM [rising, single point].

Turning to `CC(=O)c1ccc(NC(=S)Nc2ccc(Br)c(Cl)c2)cc1`, the cell number change is -51.4%. In addition, under setting [1], the half-maximal activity concentration (AC50) was 0.103 µM [falling, full curve, poor fit].

`CNC(=O)c1nnsc1S(=O)c1ccc(Cl)cc1` (centres undefined): the cell number change is -46.4%. Also, the AC50 under setting [1] is 29.1 µM [falling, single point]. Moreover, the AC50 under setting [2] is 29.1 µM [falling, partial curve, poor fit].

For the compound `C=CCN1C(=O)N(c2ccc(Cl)cc2)C(=O)C1CC(=O)Nc1ccc(F)cc1` (centres undefined), the cell number change stood at 1.53%. Under setting [1], the concentration at half-maximal activity (AC50) was 7.31 µM [falling, single point]. Besides, the concentration at half-maximal activity (AC50) under setting [2] is 0.0058 µM [falling, full curve, poor fit].

Turning to `C=CCn1c(SCC(=O)c2c(N)n(CCC)c(=O)n(C)c2=O)nnc1-c1ccncc1`, under setting [1], the AC50 was 6.51 µM [rising, single point].

In the case of `CCN(c1ccc(OC)cc1)S(=O)(=O)c1nnc(NC(=O)c2ccccc2Cl)s1`, the cell number change is -30.4%. Moreover, the AC50 under setting [1] is 3.66 µM [falling, partial curve].

In the case of `CCOC(=O)c1ccccc1NS(=O)(=O)c1ccccc1`, the cell number change was found to be 17.4%. Further, the AC50 under setting [2] was 0.58 µM [rising, single point].

For the compound `CC1CN(S(=O)(=O)c2cccc(C(=O)OC/C(O)=C(\C#N)c3nc4ccccc4[nH]3)c2)CC(C)O1` (centres undefined), the cell number change was -51.7%. Moreover, the AC50 under setting [1] is 29.1 µM [falling, single point]. The AC50 under setting [2] is 29.1 µM [falling, single point].

Turning to `CC1CCCN(C(=O)Cn2nnc(-c3cccnc3)n2)C1` (centres undefined), the cell number change worked out at 33.4%. The AC50 under setting [1] was 1.64 µM [rising, full curve]. The AC50 under setting [2] was 10.3 µM [falling, partial curve].

Consider `CCC(=O)N(Cc1cc2cc(OC)ccc2[nH]c1=O)c1ccc(C)cc1`, for which the cell number change was 2.19%. Also, the concentration at half-maximal activity (AC50) under setting [2] was 29.1 µM [falling, single point].

As to `Cn1c(=O)oc2cc(S(=O)(=O)NCCN3CCN(c4ccccc4F)CC3)ccc21`, the cell number change was -15.1%. The half-maximal activity concentration (AC50) under setting [2] was 0.206 µM [falling, partial curve].

Regarding `Cn1c2ccccc2c2cnn(CC(=O)Nc3ccc(Cl)cc3)c(=O)c21`, the cell number change worked out at 19.6%. The AC50 under setting [2] was 16.4 µM [rising, single point].

Take `CCN(Cc1nc2ccccc2c(=O)[nH]1)C(=O)C1CC(=O)N(c2cccc3ccccc23)C1` (centres undefined): the cell number change came out at 11.9%. Also, the concentration at half-maximal activity (AC50) under setting [2] is 0.00461 µM [falling, full curve, poor fit].

Take `Cc1ccc(NC(=O)c2cccc3c2-c2ccccc2C3=O)cc1C`: the cell number change stood at 36.4%. Further, the AC50 under setting [1] was 29.1 µM [rising, single point].

Turning to `COc1cccc(NC(=O)CN(C)C(=O)c2cc(-c3ccccc3)nc3ccccc23)c1`, the cell number change was 25%. Also, the AC50 under setting [2] is 0.651 µM [rising, partial curve, poor fit].

Regarding `CCN(CC)CCCNc1nc(CN2CCOCC2)nc2sc3c(c12)CCC3`, the concentration at half-maximal activity (AC50) under setting [2] was 25.9 µM [rising, single point].
